Measured values as given in PMC7819943, “Rice protein-binding microarrays: a tool to detect cis-acting elements near promoter regions in rice”.
The other results are listed elsewhere or left out.

What follows are sequences tested against T1, OsSMF1 (Oryza sativa, UniProt Q6ZLB0 1-436) (assay: protein-binding microarray (RPBM); PBS, 2% BSA, 51.3 ng/ul salmon testes DNA, 50 uM zinc acetate, 200 nM TF, 25 C, 1 h; high values mean tight binding). Conditions: protein: recombinant; tags: N-terminal polyhistidine and DsRed monomer fusion (pET32a); chain copies: 2; label: CyDye5-dUTP incorporated in the synthesized complementary strand; 3' TTTTT single-stranded linker to array surface; dsDNA, one strand shown.
T1 sequence: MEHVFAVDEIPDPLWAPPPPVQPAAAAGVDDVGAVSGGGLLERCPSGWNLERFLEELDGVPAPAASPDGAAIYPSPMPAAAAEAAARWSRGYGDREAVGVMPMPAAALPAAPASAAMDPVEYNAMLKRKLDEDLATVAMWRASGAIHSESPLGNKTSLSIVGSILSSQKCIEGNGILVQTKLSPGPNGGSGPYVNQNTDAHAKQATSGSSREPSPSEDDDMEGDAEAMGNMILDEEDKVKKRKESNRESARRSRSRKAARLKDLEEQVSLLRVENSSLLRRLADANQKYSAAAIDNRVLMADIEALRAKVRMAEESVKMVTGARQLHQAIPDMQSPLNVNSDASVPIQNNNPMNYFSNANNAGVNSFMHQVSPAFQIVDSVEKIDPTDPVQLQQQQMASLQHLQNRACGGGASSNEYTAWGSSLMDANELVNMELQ
Procedure, shortened: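 Per-feature fluorescence intensity (arbitrary units), read on an Axon 4000B scanner, is the binding signal. Transcription factors carrying an N-terminal polyhistidine tag and DsRed fusion were expressed in E. coli BL21-CodonPlus and purified on Ni–NTA. A custom Agilent array, made double-stranded by primer extension with Cy5-dUTP and blocked with 2% BSA, was incubated with 200 nM protein in PBS, 2% BSA, salmon testes DNA and 50 µM zinc acetate at 25 °C for 1 h and then washed.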

Sequence | binding signal
GTCGAGTTCGCGCATGCGCCGCCGTGGCGACGACCTAGCTCGGAGTCACCTAGTGCAG | 4020 fluorescence intensity (a.u.)
AGGAGGGGACGTGCACGCCGCACCACCACCACCACCACCACGGAGTCACCTAGTGCAG | 3460 fluorescence intensity (a.u.)
TGGTATCTAGCAGTTAGTACCTCAGAAGTTAGAGGTCACACGGAGTCACCTAGTGCAG | 18900 fluorescence intensity (a.u.)
AAAGACAGCTCGAAGATACATAGATGACACGGAAACAGGGCGGAGTCACCTAGTGCAG | 4410 fluorescence intensity (a.u.)
ACGATTTTACGAATGCTGACGCCTTTCATCACCAATCTACCGGAGTCACCTAGTGCAG | 3850 fluorescence intensity (a.u.)
AAATAATACACGTCATAGACCCATAGAAGATTCTCCCTTTCGGAGTCACCTAGTGCAG | 18600 fluorescence intensity (a.u.)
AGTTCACCACCACCGCCACGCGCGCGCTGTCTCCAAACACCGGAGTCACCTAGTGCAG | 4190 fluorescence intensity (a.u.)
CAATTATGTGCATATTCTTAGATGACGTAAAGAGCTCCGGCGGAGTCACCTAGTGCAG | 4100 fluorescence intensity (a.u.)
CTAAGCTGTGTACTACTCCTCAAGATGACACCACCACCATCGGAGTCACCTAGTGCAG | 3780 fluorescence intensity (a.u.)
CACCACACTCAAGATCAATGTCGCGATCCACGGCGGCGACCGGAGTCACCTAGTGCAG | 3380 fluorescence intensity (a.u.)
GCACGGACGGACGGACTCACGCACGCACTCACGCATACATCGGAGTCACCTAGTGCAG | 3360 fluorescence intensity (a.u.)
CTCCAACGACTGCCACGATTGCGTCACCATCTTCGTCTTCCGGAGTCACCTAGTGCAG | 13600 fluorescence intensity (a.u.)
GTAGATTGGGATCCAGGGAAGGGGAGCGGACGGTTCGAGTCGGAGTCACCTAGTGCAG | 24500 fluorescence intensity (a.u.)
TGTGCTGTTCGTGCTGATTCGGACGCGTCGGCAGCTGGTGCGGAGTCACCTAGTGCAG | 4800 fluorescence intensity (a.u.)
TTGAACAAAAGAACATACCCTTAATCACATTAGTCGAATTCGGAGTCACCTAGTGCAG | 3250 fluorescence intensity (a.u.)
GCTTATCGTGTCACCGCGAGAGGATAGGAACGACACACACCGGAGTCACCTAGTGCAG | 3760 fluorescence intensity (a.u.)
GTTATTAGCGTCGTGATCCAATATGACGGTGCCAATGATACGGAGTCACCTAGTGCAG | 4450 fluorescence intensity (a.u.)
GAGAGACTTTGAGATGGCGTGTCTACTCGGAAGGCGTAGGCGGAGTCACCTAGTGCAG | 3160 fluorescence intensity (a.u.)
GACAGTGGTTTTGGCTGACGTGGCGCATACGTGGCTAATTCGGAGTCACCTAGTGCAG | 12700 fluorescence intensity (a.u.)
AAATATTGACGTTCTCTTTTACAGTTGCTATTGTTGTGCTCGGAGTCACCTAGTGCAG | 3230 fluorescence intensity (a.u.)
GGCGACTGGGTGCGGTTGCACTCCCGCGTAAAACACGTCACGGAGTCACCTAGTGCAG | 7400 fluorescence intensity (a.u.)

Sequence | binding signal
ACCAAATGTTATTTTATGAGTCAACAGTCTAAATCCTTCACGGAGTCACCTAGTGCAG | 4570 fluorescence intensity (a.u.)
CAACGGAACGCATGCAAGTATGTACGTGGTCGTTTCAGTCCGGAGTCACCTAGTGCAG | 4360 fluorescence intensity (a.u.)
CGTCCACGTGGCATGCCACATCAGCACCACGTATGATACTCGGAGTCACCTAGTGCAG | 32900 fluorescence intensity (a.u.)
AAGACCAGCCACGTGTGCACGGACGTCAGGGCATCTACCGCGGAGTCACCTAGTGCAG | 12000 fluorescence intensity (a.u.)
TCTGCTTAAATCATGTGCTATACCGGTGTAAATACAGTTGCGGAGTCACCTAGTGCAG | 3330 fluorescence intensity (a.u.)
GGAGGCGGCGGCGACGAGGAGGGGCGTGGGCGGCGGCGGCCGGAGTCACCTAGTGCAG | 3660 fluorescence intensity (a.u.)
GACATTGGTGTATGATTCATGGTGGTCCCCTACCTCGCCCCGGAGTCACCTAGTGCAG | 3160 fluorescence intensity (a.u.)
GCGCCGCGGTGGAGGCGAGTGGGCGACACGTGGGAAGTGGCGGAGTCACCTAGTGCAG | 6610 fluorescence intensity (a.u.)
TTTGTCCTCACTTCTGGGGCCCCACCTGTCACCTGACAGGCGGAGTCACCTAGTGCAG | 36000 fluorescence intensity (a.u.)
CTTGGATGAGCCGCTCTTTTATGAAACAACTCCACGTGTACGGAGTCACCTAGTGCAG | 9940 fluorescence intensity (a.u.)
AGAGACGAGGCGGAGCTGGTTGGCATCGACGAGGCAAGCGCGGAGTCACCTAGTGCAG | 3590 fluorescence intensity (a.u.)
AAGACTAGACAATATCGACAGAAAATGGTAAGCCTGGTTTCGGAGTCACCTAGTGCAG | 4710 fluorescence intensity (a.u.)
CGTGTTGCAAACTTCTGACTGTAGTACTGTACGACAACAACGGAGTCACCTAGTGCAG | 3680 fluorescence intensity (a.u.)
ACGCGCAGCCACGATCGCTCGCTCGTTGGGTCGGTGACGTCGGAGTCACCTAGTGCAG | 3730 fluorescence intensity (a.u.)
GTGTGTGGTGTGGTGGTCCTCGCGCGCAATTGCTTTCCGTCGGAGTCACCTAGTGCAG | 4140 fluorescence intensity (a.u.)
CAATTAATTAAGTACGTGGACGTACTGTCTTAATTGAACGCGGAGTCACCTAGTGCAG | 3760 fluorescence intensity (a.u.)
ACACCATAGAACAGTTAATCACATACGTGTGTTAATGTCGCGGAGTCACCTAGTGCAG | 4350 fluorescence intensity (a.u.)
CGGATTCGCCACAGATCTCTCGCCCCACGTCGCCGCCCTCCGGAGTCACCTAGTGCAG | 5040 fluorescence intensity (a.u.)
TTTTGTTGACAGCTAGCGTCAGGTTTATCTACTCGTCGTCCGGAGTCACCTAGTGCAG | 3740 fluorescence intensity (a.u.)
TCATCTATAAAAGAGCCCCTCTTCCCAAGCCTCAATTCCCCGGAGTCACCTAGTGCAG | 16200 fluorescence intensity (a.u.)
ACTAAAGTTTACTCACTGCATTGCAAATATGCAGCTTGCACGGAGTCACCTAGTGCAG | 39000 fluorescence intensity (a.u.)

Three neighbouring records out of the list so far:
Sequence | binding signal
ACACCATAGAACAGTTAATCACATACGTGTGTTAATGTCGCGGAGTCACCTAGTGCAG | 4350 fluorescence intensity (a.u.)
CGGATTCGCCACAGATCTCTCGCCCCACGTCGCCGCCCTCCGGAGTCACCTAGTGCAG | 5040 fluorescence intensity (a.u.)
TTTTGTTGACAGCTAGCGTCAGGTTTATCTACTCGTCGTCCGGAGTCACCTAGTGCAG | 3740 fluorescence intensity (a.u.)
